# Where a name gives a salt, the structure may show the parent alone. Several reference drugs read as weak here; read low effects with care.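 The three lines are all high-grade serous ovarian cancer cells with differing chemosensitivity; OVCAR3 is described as chemosensitive. Toxicity was normalized between DMSO vehicle wells and fully lysed wells, the score comes from a fitted multi-dose response curve, and a score above 5 was counted as drug sensitivity.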
# How the values were obtained:
# Assay in all cases: drug sensitivity score (DSS2, cytotoxicity, CellTox Green); higher = more cytotoxic / more sensitive; extreme values may be limits of the assay
# Details in all cases: 72 h; doses 0.5, 1, 5 µM
# [1] = system: OVCAR3
# [2] = system: OVCAR4
# [3] = system: Kuramochi
SMILES,drug sensitivity score [1],drug sensitivity score [2],drug sensitivity score [3]
CC(=O)O[C@]1(C(C)=O)CC[C@H]2[C@@H]3CCC4=CC(=O)CCC4=C3[C@@H](c3ccc(N(C)C)cc3)C[C@@]21C [Ulipristal acetate],0 DSS,0 DSS,0 DSS
CC1(C)CCC(CN2CCN(c3ccc(C(=O)NS(=O)(=O)c4ccc(NCC5CCOCC5)c([N+](=O)[O-])c4)c(Oc4cnc5[nH]ccc5c4)c3)CC2)=C(c2ccc(Cl)cc2)C1 [Venetoclax],0 DSS,0 DSS,0 DSS
Nc1nc2[nH]cc(CCc3ccc(C(=O)N[C@@H](CCC(=O)O)C(=O)O)cc3)c2c(=O)[nH]1 [Pemetrexed (disodium hemipenta hydrate)],0 DSS,0 DSS,0 DSS
COc1cc(NS(C)(=O)=O)ccc1Nc1c2ccccc2nc2ccccc12 [Amsacrine],0 DSS,0 DSS,0 DSS
Cc1cc(C2CCCCC2)n(O)c(=O)c1 [Ciclopirox (olamine)],0 DSS,0 DSS,0 DSS
Cc1nc(Nc2ncc(C(=O)Nc3c(C)cccc3Cl)s2)cc(N2CCN(CCO)CC2)n1 [Dasatinib (hydrochloride)],0.9 DSS,0 DSS,1.5 DSS
CC[C@H](C)C(=O)O[C@H]1C[C@@H](C)C=C2C=C[C@H](C)[C@H](CC[C@@H]3C[C@@H](O)CC(=O)O3)[C@H]21 [Lovastatin],1 DSS,0.4 DSS,2.2 DSS
CC[C@H]1OC(=O)[C@H](C)[C@@H](O[C@H]2C[C@@](C)(OC)[C@@H](O)[C@H](C)O2)[C@H](C)[C@@H](O[C@@H]2O[C@H](C)C[C@H](N(C)C)[C@H]2O)[C@](C)(O)C[C@@H](C)CN(C)[C@H](C)[C@@H](O)[C@]1(C)O [Azithromycin],0 DSS,0 DSS,0 DSS
O=S(=O)(c1cccc2cnccc12)N1CCCNCC1 [Fasudil (Hydrochloride)],0 DSS,0 DSS,0 DSS
OCc1ccc(-c2ccc(-c3ccc(CO)s3)o2)s1 [RITA],6.7 DSS,1.8 DSS,5.4 DSS
O=C(O)CCC(=O)c1ccc(-c2ccccc2)cc1 [Fenbufen],0 DSS,0 DSS,0 DSS
O=c1cc(-c2ccccc2)oc2cc(O)c(O)c(O)c12 [Baicalein],0 DSS,0 DSS,0 DSS
CN(Cc1cnc2nc(N)nc(N)c2n1)c1ccc(C(=O)N[C@@H](CCC(=O)O)C(=O)O)cc1 [Methotrexate],0 DSS,0 DSS,0 DSS
CC(=O)O[C@H]1C[C@H](O[C@H]2[C@@H](O)C[C@H](O[C@H]3[C@@H](O)C[C@H](O[C@H]4CC[C@@]5(C)[C@H](CC[C@@H]6[C@@H]5C[C@@H](O)[C@]5(C)[C@@H](C7=CC(=O)OC7)CC[C@]65O)C4)O[C@@H]3C)O[C@@H]2C)O[C@H](C)[C@H]1O[C@@H]1O[C@H](CO)[C@@H](O)[C@H](O)[C@H]1O [Lanatoside C],2.9 DSS,6.1 DSS,0.7 DSS
C[C@@H](Oc1cc(-c2cnn(C3CCNCC3)c2)cnc1N)c1c(Cl)ccc(F)c1Cl [Crizotinib (hydrochloride)],0 DSS,0 DSS,0 DSS
Nc1ncnc2c1ncn2[C@@H]1O[C@H](CO)[C@@H](O)[C@H]1O [Adenosine],0 DSS,0 DSS,0 DSS
CC[C@]1(O)C[C@@H]2CN(CCc3c([nH]c4ccccc34)[C@@](C(=O)OC)(c3cc4c(cc3OC)N(C)[C@H]3[C@@](O)(C(=O)OC)[C@H](OC(C)=O)[C@]5(CC)C=CCN6CC[C@]43[C@@H]65)C2)C1 [Vinblastine (sulfate)],10 DSS,1 DSS,2.1 DSS

# Looked up by compound from above:
SMILES,drug sensitivity score [1],drug sensitivity score [2],drug sensitivity score [3]
CN(Cc1cnc2nc(N)nc(N)c2n1)c1ccc(C(=O)N[C@@H](CCC(=O)O)C(=O)O)cc1 [Methotrexate],0 DSS,0 DSS,0 DSS
OCc1ccc(-c2ccc(-c3ccc(CO)s3)o2)s1 [RITA],6.7 DSS,1.8 DSS,5.4 DSS

# Additional compounds follow:

SMILES,drug sensitivity score [1],drug sensitivity score [2],drug sensitivity score [3]
C[C@@H]1CCN(C(=O)CC#N)C[C@@H]1N(C)c1ncnc2[nH]ccc12 [Tofacitinib (citrate)],0 DSS,0 DSS,0 DSS
N=C(N)Nc1ccc(C(=O)Oc2ccc3cc(C(=N)N)ccc3c2)cc1 [Nafamostat (mesylate)],0 DSS,0 DSS,0 DSS
O=C(O)c1cc(/N=N/c2ccc(S(=O)(=O)Nc3ccccn3)cc2)ccc1O [Sulfasalazine],0 DSS,0 DSS,0 DSS
O=C1NCCN1CCN1CCC(c2cn(-c3ccc(F)cc3)c3ccc(Cl)cc23)CC1 [Sertindole],0 DSS,0 DSS,0 DSS
CC(C)[C@]12O[C@H]1[C@@H]1O[C@]13[C@]1(O[C@H]1C[C@H]1C4=C(CC[C@@]13C)C(=O)OC4)[C@@H]2O [Triptolide],0 DSS,4.8 DSS,0 DSS
NCCCNCCS [Amifostine thiol (dihydrochloride)],0 DSS,0 DSS,0 DSS
N[C@@H](C=O)[C@@H](O)[C@H](O)[C@H](O)CO [Glucosamine (hydrochloride)],0 DSS,0 DSS,0 DSS
O=C([O-])c1ccccc1O.[Na+] [Sodium Salicylate],0 DSS,0 DSS,0 DSS
O=C1CCC[C@@H]2[C@H]3CCCN4CCC[C@H](CN12)[C@@H]34 [Sophoridine],0 DSS,0 DSS,0 DSS
CCOc1cc(C(C)(C)C)ccc1C1=N[C@@](C)(c2ccc(Cl)cc2)[C@@](C)(c2ccc(Cl)cc2)N1C(=O)N1CCN(CCCS(C)(=O)=O)CC1 [RG7112],0 DSS,0 DSS,0 DSS
CC(C)c1cc2c(cc1S(=O)(=O)O)[C@@]1(C)CCC[C@@](C)(C(=O)O)[C@@H]1CC2 [Ecabet (sodium)],0 DSS,0 DSS,0 DSS
O=C(O)Cc1ccccc1Nc1c(Cl)cccc1Cl [Diclofenac],0 DSS,0 DSS,0 DSS
OC(CNCC(O)C1CCc2cc(F)ccc2O1)C1CCc2cc(F)ccc2O1 (centres undefined) [Nebivolol (hydrochloride)],0 DSS,0 DSS,0 DSS
OC[C@H]1O[C@@H](n2cnc3c2N=CNC[C@H]3O)C[C@@H]1O [Pentostatin],0 DSS,0 DSS,0 DSS
CCCCCOC(=O)Nc1nc(=O)n([C@@H]2O[C@H](C)[C@@H](O)[C@H]2O)cc1F [Capecitabine],0 DSS,0 DSS,0 DSS
COc1ccc2cc3[n+](cc2c1OC)CCc1cc2c(cc1-3)OCO2 [Berberine (chloride hydrate)],0 DSS,0 DSS,0 DSS

# — the supplement of paper PMC12593923
